# Values joined by “and” are separate entries in the source; they are usually repeats but may differ in a detail not shown here. Equal entries are not always repeated. This list was built around the results that the source calls inconclusive (neither active nor inactive); the mix of calls is not that of the screen. For some of these results: A potency beside an inconclusive call is a rough fit, not a confirmed value. The source holds several records for some structures; these can differ, active in one and inactive in another. Active and inactive are the calls of the source. The calls were made as follows: active = hit-call score of the fitted dose curve at least 0.9, where 1 is the maximum; inconclusive = response in the unintended direction; inactive = score below 0.9.
# Chains of the proteins cited; added tags and fusions are not shown. Lines headed by an entry give the natural chain unless they say otherwise; changes in a name come on top.
# UniProt P03372, whole entry, looked up: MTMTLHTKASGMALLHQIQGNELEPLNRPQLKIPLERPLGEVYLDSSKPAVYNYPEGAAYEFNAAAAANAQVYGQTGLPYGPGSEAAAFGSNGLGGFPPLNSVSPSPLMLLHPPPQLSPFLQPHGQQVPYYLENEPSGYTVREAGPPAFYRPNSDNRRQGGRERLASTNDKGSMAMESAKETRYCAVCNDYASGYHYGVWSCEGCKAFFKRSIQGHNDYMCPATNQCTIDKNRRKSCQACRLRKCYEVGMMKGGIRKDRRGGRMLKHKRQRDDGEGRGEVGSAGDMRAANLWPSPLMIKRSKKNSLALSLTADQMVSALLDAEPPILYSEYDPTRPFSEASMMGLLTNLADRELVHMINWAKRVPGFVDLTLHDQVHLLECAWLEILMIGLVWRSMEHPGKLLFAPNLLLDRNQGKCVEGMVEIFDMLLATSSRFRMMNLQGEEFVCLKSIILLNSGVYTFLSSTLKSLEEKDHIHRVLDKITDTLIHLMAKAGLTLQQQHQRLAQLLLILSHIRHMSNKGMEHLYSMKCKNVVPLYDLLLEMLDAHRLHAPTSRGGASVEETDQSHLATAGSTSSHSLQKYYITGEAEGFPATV
# UniProt P10275: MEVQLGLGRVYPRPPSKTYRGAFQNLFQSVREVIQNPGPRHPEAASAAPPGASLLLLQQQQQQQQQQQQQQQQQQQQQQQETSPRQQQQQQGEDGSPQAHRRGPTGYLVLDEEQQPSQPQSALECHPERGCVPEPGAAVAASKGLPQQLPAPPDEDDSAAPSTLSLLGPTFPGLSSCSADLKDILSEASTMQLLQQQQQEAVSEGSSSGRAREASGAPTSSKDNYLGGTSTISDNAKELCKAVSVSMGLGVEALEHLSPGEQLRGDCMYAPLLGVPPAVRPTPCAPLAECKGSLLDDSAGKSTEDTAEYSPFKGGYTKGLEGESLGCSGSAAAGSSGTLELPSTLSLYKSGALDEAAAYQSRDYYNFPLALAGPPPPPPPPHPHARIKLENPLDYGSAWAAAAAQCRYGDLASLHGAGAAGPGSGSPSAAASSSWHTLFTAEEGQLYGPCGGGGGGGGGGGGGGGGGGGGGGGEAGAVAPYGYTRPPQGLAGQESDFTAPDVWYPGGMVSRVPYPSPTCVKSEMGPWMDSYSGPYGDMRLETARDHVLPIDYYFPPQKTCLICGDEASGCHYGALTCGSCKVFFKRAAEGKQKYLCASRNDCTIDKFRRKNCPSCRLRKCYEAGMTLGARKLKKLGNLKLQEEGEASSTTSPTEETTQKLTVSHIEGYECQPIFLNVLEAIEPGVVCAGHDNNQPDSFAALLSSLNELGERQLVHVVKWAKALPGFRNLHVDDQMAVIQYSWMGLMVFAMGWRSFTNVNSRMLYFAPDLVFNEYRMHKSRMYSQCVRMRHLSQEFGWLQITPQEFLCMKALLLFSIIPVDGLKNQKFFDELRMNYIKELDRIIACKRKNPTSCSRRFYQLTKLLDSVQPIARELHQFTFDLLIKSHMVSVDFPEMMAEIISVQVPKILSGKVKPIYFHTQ
# Assays:
# [1] = target: Estrogen receptor (Homo sapiens) (UniProt P03372); assay: ATG_hERa_XSP1: Attagene TRANS-FACTORIAL Multi-Species (XSP1) HepG2 Assay for human Estrogen Receptor (ESR1) (AID 2283780)
# In short: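 HepG2 cells transiently transfected with GAL4-UAS reporter units and chimeric NR-Gal4 constructs; 24 h after dosing, reporter mRNA quantified by RT-PCR and capillary electrophoresis. Medium contained 3 nM 6-alpha-fluorotestosterone; activity fitted as gain-of-signal versus DMSO.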
# [2] = ACEA_ER_AUC_viability: ACEA Biosciences xCELLigence Real-Time Cell Analysis on Estrogen Receptor Agonism for Viability (AID 2283782);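 also: continuous compound exposure with impedance area under curve over 80 h; hit means loss of impedance signal meaning reduced cell growth or viability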
# In short: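 T-47D; phenol red-free RPMI1640 + 10% CS-FBS; 8 conc., 1:4 serial, max 100 uM final, ≤0.5% DMSO; n = 2; continuous exposure; impedance monitored to 80 h post-dose; AUC vs DMSO.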
# AR (gene 367) = AR (gene 367) (UniProt P10275); assay: ACEA_AR_agonist_80hr: ACEA Biosciences xCELLigence Real-Time Cell Analysis on Androgen Receptor Agonism for Proliferation (AID 2283783);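 also: hits increase impedance growth signal above DMSO baseline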
# In short: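 Androgen-driven proliferation in 22Rv1 cells is tracked as electrical impedance, taken 80 h after continuous exposure to compound (eight concentrations, 1:4 steps, maximum 100 uM final). Activity is fitted in the positive direction with DMSO as baseline.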
smiles,measurement,setting,value
CC(C)NC(=O)N1CC(=O)N(c2cc(Cl)cc(Cl)c2)C1=O,AC50,[1],active: 10.3 µM
ClCc1ccccc1CCl,AC50,[2],active: 29.6 µM
P.[In],AC50,[2],inconclusive: 0.173 µM
CSC(C)(C)C=NO,outcome,[2],inactive
Oc1c(I)cc(I)cc1I,AC50,[2],active: 87.9 µM
CC(C)c1ccc(O)cc1,AC50,[2],inconclusive: 3.54 µM
O=C(O)C(Br)Br,outcome,[2],inactive
CCc1ccccc1C,outcome,[2],inactive
O=S1(=O)OCC2C(CO1)C1(Cl)C(Cl)=C(Cl)C2(Cl)C1(Cl)Cl (stereo unspecified),AC50,[2],active: 83 µM
COc1ccc(O)c(C(C)(C)C)c1,AC50,[2],active: 64.6 µM
ClC1=C(Cl)[C@]2(Cl)[C@@H]3[C@@H](Cl)[C@H]4O[C@H]4[C@@H]3C1(Cl)C2(Cl)Cl,AC50,[2],active: 73 µM
NC(=O)C(F)(F)C(F)(F)F,AC50,[2],inconclusive: 20.5 µM
Nc1nc(N)nc(Cl)n1,outcome,[2],inactive
Cl/C=C\CCl,outcome,[2],inactive
O=C1CCCN1,AC50,[2],inconclusive: 50 µM
OCC(F)(F)OC(F)(F)C(F)(F)OC(F)(F)CO,AC50,[2],inconclusive: 19.9 µM
Nc1cccc2ccccc12,AC50,[2],active: 80.2 µM
CC(C)(C)C(O)/C(=C\c1ccc(Cl)cc1Cl)n1cncn1 (stereo unspecified),AC50,[2],active: 81.1 µM
COC(=O)C(C)Oc1ccc(Oc2ccc(Cl)cc2Cl)cc1 (stereo unspecified),AC50,[2],inconclusive: 50 µM
CC(C)c1ccc(CO)cc1,outcome,[2],inactive
O=C(Oc1ccc(Br)cc1)N1CCN2CCC1CC2,outcome,[2],inactive
CCOP(=S)(OCC)SCSC(C)(C)C,AC50,[2],active: 92.7 µM
O=C(O)CCCc1ccc(N(CCCl)CCCl)cc1,AC50,[2],active: 27.3 µM
CCCCCCCCSC(=O)Oc1cc(Cl)nnc1-c1ccccc1,AC50,[2],inconclusive: 50 µM
Cc1cccc(N)c1,AC50,[2],inconclusive: 89.6 µM
COCC(=O)N(c1c(C)cccc1C)N1CCOC1=O,AC50,[2],inconclusive: 9.92 µM
CCC(=O)c1ccccc1,AC50,[2],inconclusive: 1.19 µM
CC(C)(C)c1ccccc1OP(=O)(Oc1ccccc1)Oc1ccccc1,outcome,[2],inactive
CC(C)OC(=S)S,AC50,[2],inconclusive: 50 µM
COc1cc(-c2ccc(N)c(OC)c2)ccc1N,AC50,[2],inconclusive: 48 µM and inconclusive: 50 µM
O=C(O)C1C(C(=O)O)C2(Cl)C(Cl)=C(Cl)C1(Cl)C2(Cl)Cl (stereo unspecified),AC50,[2],inconclusive: 50 µM
CC(C)Oc1cccc(NC(=O)c2ccccc2C(F)(F)F)c1,outcome,[2],inactive
c1ccc(-c2cccc(-c3ccccc3)c2)cc1,AC50,[2],active: 24.4 µM
O=C(CCl)Nc1ccccc1,AC50,[2],active: 10.8 µM
O=C(Cc1ccccc1)OCCc1ccccc1,AC50,[2],active: 82.5 µM
CCOS(=O)(=O)OCC,AC50,[2],inconclusive: 0.0905 µM
C=CC(=O)OCC(CC)CCCC (stereo unspecified),outcome,[2],inactive
Clc1nc(Cl)nc(Nc2ccccc2Cl)n1,AC50,[2],inconclusive: 0.0386 µM
Cc1cc(-c2ccc(N)c(C)c2)ccc1N,AC50,[2],inconclusive: 23 µM and inconclusive: 3.76 µM
ClC1=C(Cl)[C@]2(Cl)[C@@H]3[C@@H](Cl)[C@H](Cl)C[C@@H]3[C@@]1(Cl)C2(Cl)Cl,outcome,[2],inactive
C=CCOC(N)=O,AC50,[2],inconclusive: 13.7 µM
O=C(O)C(F)(F)OC(F)(F)C(F)(F)OC(F)(F)F,outcome,[2],inactive
ClCCN1CCOCC1,AC50,[2],active: 31.6 µM
Fc1ccc(C2(Cn3cncn3)OC2c2ccccc2Cl)cc1 (stereo unspecified),AC50,[2],inconclusive: 3.06 µM
CCC[CH2][Sn]([Cl])([Cl])[CH2]CCC,AC50,[2],active: 1.09 µM
CC(C)(C)c1cc([N+](=O)[O-])cc(C(C)(C)C)c1O,AC50,[2],active: 24.3 µM
CC(=[OH+])/C=C(/C)[O-].CC(=[OH+])/C=C(/C)[O-].CC(=[OH+])/C=C(/C)[O-].[Al],AC50,[2],active: 72.6 µM
O=C1c2ccccc2C(=O)N1SC(Cl)(Cl)Cl,outcome,[2],inactive
CC1(C)Cc2cccc(O)c2O1,AC50,[2],inconclusive: 9.92 µM
O=C1Nc2ccc(Cl)cc2C(c2ccccc2)=NC1O (stereo unspecified),AC50,[2],inconclusive: 0.0235 µM
O=S(=O)(c1ccc(Cl)cc1)c1ccc(Cl)cc1,AC50,[2],inconclusive: 50.5 µM
CC(C)(C#N)N=NC(C)(C)C#N,outcome,[2],inactive
N#CC(CCc1ccc(Cl)cc1)(Cn1cncn1)c1ccccc1 (stereo unspecified),AC50,[2],inconclusive: 0.0179 µM
CC(C)(C)C(=O)C(Oc1ccc(Cl)cc1)n1cncn1 (stereo unspecified),AC50,[2],inconclusive: 10.8 µM
Cc1ccc(N=C=O)cc1N=C=O,AC50,[2],inconclusive: 50 µM
CCCC=NO,outcome,[2],inactive
O=[N+]([O-])c1cccc2ccccc12,outcome,[2],inactive
Cc1ccn2nc(S(=O)(=O)Nc3c(F)cccc3F)nc2n1,AC50,[2],inconclusive: 0.00536 µM
C=CCOC(=O)C(C)(C)OC(=O)c1cc(-n2c(=O)cc(C(F)(F)F)n(C)c2=O)ccc1Cl,AC50,[2],inconclusive: 0.0204 µM
O=C/C(Cl)=C(/Cl)C(=O)O,AC50,[2],active: 73.9 µM
CCCCC(CC)C(=O)Cl (stereo unspecified),outcome,[2],inactive
CCC(C)(C)O,outcome,[2],inactive
O=C(O)C=CC(F)(C(F)(F)F)C(F)(F)F,AC50,[2],inconclusive: 75 µM
CC(=O)OC(c1ccccc1)C(Cl)(Cl)Cl (stereo unspecified),outcome,[2],inactive
CCCCCCCCCCBr,outcome,[2],inactive
O=[N+]([O-])c1ccccc1O,AC50,[2],inconclusive: 0.0648 µM
O=S(=O)(c1ccc(Cl)cc1)c1cc(Cl)c(Cl)cc1Cl,AC50,[2],active: 69.2 µM
C=COCCCl,outcome,[2],inactive
N#Cc1c(-c2ccc(Cl)cc2)[nH]c(C(F)(F)F)c1Br,AC50,[2],active: 6.72 µM
N#CN=C(N)N,AC50,[2],inconclusive: 50 µM
C=C(C)CN(CC)c1c([N+](=O)[O-])cc(C(F)(F)F)cc1[N+](=O)[O-],AC50,[2],inconclusive: 10.7 µM
Cc1c(F)c(F)c(COC(=O)C2C(/C=C(\Cl)C(F)(F)F)C2(C)C)c(F)c1F (stereo unspecified),AC50,[2],inconclusive: 0.0272 µM
CC(=O)C(Cl)C(=O)N(C)C (stereo unspecified),AC50,[2],inconclusive: 0.161 µM
CCOP(=S)(OCC)SCSCC,AC50,[2],inconclusive: 19.1 µM
SCc1ccco1,outcome,[2],inactive
CCC(C)c1ccc(O)cc1 (stereo unspecified),AC50,[2],active: 89.2 µM
O=Cc1cccc(Oc2ccccc2)c1,AC50,[2],inconclusive: 15.1 µM
CCCCC(CC)COC(=O)c1c(Br)c(Br)c(Br)c(Br)c1C(=O)OCC(CC)CCCC (stereo unspecified),AC50,[2],inconclusive: 0.00597 µM
CC(Oc1ccc(Cl)cc1Cl)C(=O)O (stereo unspecified),AC50,[2],inconclusive: 18.1 µM
COC(C)(C)CCC[C@H](C)C/C=C/C(C)=C/C(=O)OC(C)C,AC50,[2],active: 79.3 µM
CC(C)c1cccc(C(C)C)c1O,AC50,[2],inconclusive: 50 µM
same,AC50,AR (gene 367),inconclusive: 16.6 µM
C1CCC(NC2CCCCC2)CC1,AC50,[2],inconclusive: 0.0159 µM
COP(N)(=O)SC (stereo unspecified),AC50,[2],inconclusive: 0.0203 µM
CCC(C)(C)C(=O)OC1=C(c2ccc(Cl)cc2Cl)C(=O)OC12CCCCC2,AC50,[2],active: 12.3 µM
same,AC50,AR (gene 367),inconclusive: 85.2 µM
Nc1c(Cl)cc([N+](=O)[O-])cc1Cl,AC50,[2],inconclusive: 0.0728 µM
same,AC50,AR (gene 367),inconclusive: 50 µM
OC[P+](CO)(CO)CO,AC50,[2],inconclusive: 9.21 µM
O=CNC(N1CCN(C(NC=O)C(Cl)(Cl)Cl)CC1)C(Cl)(Cl)Cl (stereo unspecified),outcome,[2],inactive
same,AC50,AR (gene 367),inconclusive: 4.65 µM
CC(=Cc1ccccc1)[N+](=O)[O-],AC50,[2],active: 11.5 µM
same,AC50,AR (gene 367),inconclusive: 16.6 µM
CCC[CH2][Sn]([Cl])([Cl])[Cl],AC50,[2],inconclusive: 0.0556 µM
O=C1CCCO1,AC50,[2],inconclusive: 12.6 µM
same,AC50,AR (gene 367),inconclusive: 50 µM
Cl/C=C\C[N+]12CN3CN(CN(C3)C1)C2,AC50,[2],active: 50 µM
same,AC50,AR (gene 367),inconclusive: 8.18 µM
C[C@H]1[C@H](c2ccc(Cl)cc2)SC(=O)N1C(=O)NC1CCCCC1,AC50,[2],active: 79.9 µM
same,outcome,AR (gene 367),inactive
C=CC(=O)NCNC(=O)C=C,AC50,[2],inconclusive: 50 µM
same,outcome,AR (gene 367),inactive
C[N+](C)(C)CC1CO1 (stereo unspecified),outcome,[2],inactive
same,AC50,AR (gene 367),inconclusive: 50 µM
Cc1ccc(-c2c(Cl)nc(C#N)n2S(=O)(=O)N(C)C)cc1,AC50,[2],inconclusive: 10.2 µM
same,outcome,AR (gene 367),inactive
Oc1c(Cl)c(Cl)c(Cl)c(Cl)c1Cl,AC50,[2],active: 77.9 µM
same,outcome,[2],inactive
[N-]=[N+]=[N-],AC50,[2],inconclusive: 73.3 µM
same,AC50,AR (gene 367),inconclusive: 21.2 µM
C[C@H]1CCCC(=O)CCC/C=C/c2cc(O)cc(O)c2C(=O)O1,AC50,[2],inconclusive: 0.00378 µM
same,AC50,AR (gene 367),inconclusive: 16.6 µM
CCCN(CCC)N=O,AC50,[2],inconclusive: 10.7 µM
O=P1(N(CCCl)CCCl)NCCCO1 (stereo unspecified),AC50,[2],inconclusive: 2.72 µM
Nc1ccccc1C(=O)Oc1ccc2ccccc2c1,AC50,[2],active: 24.4 µM
Nc1c(Cl)c(F)nc(OCC(=O)O)c1Cl,AC50,[2],inconclusive: 0.0174 µM
Nc1ccc(Cl)cc1,AC50,[2],active: 8.49 µM
same,outcome,[2],inactive
COC(=O)c1c(C(F)F)nc(C(F)(F)F)c(C2=NCCS2)c1CC(C)C,AC50,[2],inconclusive: 50 µM
same,AC50,AR (gene 367),inconclusive: 50 µM
O=[N+]([O-])c1ccc(O)c([N+](=O)[O-])c1,AC50,[2],inconclusive: 69.5 µM
same,outcome,AR (gene 367),inactive
CO/N=C(/C(=O)OC)c1ccccc1COc1ccccc1C,AC50,[2],inconclusive: 50 µM
same,AC50,AR (gene 367),inconclusive: 2.45 µM
Cc1cc(Cl)ccc1N,AC50,[2],active: 80.8 µM and active: 14.3 µM
C/C(=N\NC(=O)Nc1cc(F)cc(F)c1)c1ncccc1C(=O)O,AC50,[2],inconclusive: 0.223 µM
same,outcome,[2],inactive
O=C(O)COc1ccc(Cl)cc1,outcome,[2],inactive
COP(=O)(OC)SCn1c(=O)oc2cc(Cl)cnc21,AC50,[2],active: 76.2 µM
same,outcome,AR (gene 367),inactive
c1cc2c3c(cccc3c1)CC2,AC50,[2],inconclusive: 50 µM
same,outcome,AR (gene 367),inactive
COc1ccc(-c2ccccc2)cc1NNC(=O)OC(C)C,outcome,[2],inactive
same,AC50,AR (gene 367),inconclusive: 50 µM
O=C(NC(=O)c1c(F)cccc1F)Nc1cc(Cl)c(OC(F)(F)C(F)C(F)(F)F)cc1Cl (stereo unspecified),AC50,[2],active: 50 µM
same,AC50,AR (gene 367),inconclusive: 3.3 µM

# 3 entries from above in a different format:
smiles | measurement | setting | value
O=C(O)C(Br)Br | outcome | [2] | inactive
CCC[CH2][Sn]([Cl])([Cl])[Cl] | AC50 | [2] | inconclusive: 0.0556 µM
C=CC(=O)NCNC(=O)C=C | outcome | AR (gene 367) | inactive

# Part of the list above, with bars between the fields:
smiles | measurement | setting | value
CC(=O)C(Cl)C(=O)N(C)C (stereo unspecified) | AC50 | [2] | inconclusive: 0.161 µM
CCOP(=S)(OCC)SCSCC | AC50 | [2] | inconclusive: 19.1 µM
SCc1ccco1 | outcome | [2] | inactive
CCC(C)c1ccc(O)cc1 (stereo unspecified) | AC50 | [2] | active: 89.2 µM
O=Cc1cccc(Oc2ccccc2)c1 | AC50 | [2] | inconclusive: 15.1 µM

# Reference: PubChem BioAssay (EPA / NIEHS)
